Results are given in words; binding and its absence hold for the method and conditions named. Binding seen in cells or lysates may run through a third protein. Some entries that bind do so weakly or less than the wild type.

Chains of the proteins cited; added tags and fusions are not shown. Residues count along the entry.
UniProt P02708, residues 21-457: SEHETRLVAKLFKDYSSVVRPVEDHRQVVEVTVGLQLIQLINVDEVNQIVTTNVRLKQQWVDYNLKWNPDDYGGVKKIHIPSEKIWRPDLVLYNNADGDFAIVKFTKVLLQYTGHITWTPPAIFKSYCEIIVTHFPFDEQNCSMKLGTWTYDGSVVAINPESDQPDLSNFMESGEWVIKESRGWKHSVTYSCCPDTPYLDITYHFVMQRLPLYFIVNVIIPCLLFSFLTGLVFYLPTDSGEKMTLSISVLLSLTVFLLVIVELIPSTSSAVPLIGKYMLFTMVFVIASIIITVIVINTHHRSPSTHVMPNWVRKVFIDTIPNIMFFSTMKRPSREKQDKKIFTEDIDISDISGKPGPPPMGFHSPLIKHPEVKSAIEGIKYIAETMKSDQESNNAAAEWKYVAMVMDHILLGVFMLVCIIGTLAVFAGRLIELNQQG
UniProt Q9DC22: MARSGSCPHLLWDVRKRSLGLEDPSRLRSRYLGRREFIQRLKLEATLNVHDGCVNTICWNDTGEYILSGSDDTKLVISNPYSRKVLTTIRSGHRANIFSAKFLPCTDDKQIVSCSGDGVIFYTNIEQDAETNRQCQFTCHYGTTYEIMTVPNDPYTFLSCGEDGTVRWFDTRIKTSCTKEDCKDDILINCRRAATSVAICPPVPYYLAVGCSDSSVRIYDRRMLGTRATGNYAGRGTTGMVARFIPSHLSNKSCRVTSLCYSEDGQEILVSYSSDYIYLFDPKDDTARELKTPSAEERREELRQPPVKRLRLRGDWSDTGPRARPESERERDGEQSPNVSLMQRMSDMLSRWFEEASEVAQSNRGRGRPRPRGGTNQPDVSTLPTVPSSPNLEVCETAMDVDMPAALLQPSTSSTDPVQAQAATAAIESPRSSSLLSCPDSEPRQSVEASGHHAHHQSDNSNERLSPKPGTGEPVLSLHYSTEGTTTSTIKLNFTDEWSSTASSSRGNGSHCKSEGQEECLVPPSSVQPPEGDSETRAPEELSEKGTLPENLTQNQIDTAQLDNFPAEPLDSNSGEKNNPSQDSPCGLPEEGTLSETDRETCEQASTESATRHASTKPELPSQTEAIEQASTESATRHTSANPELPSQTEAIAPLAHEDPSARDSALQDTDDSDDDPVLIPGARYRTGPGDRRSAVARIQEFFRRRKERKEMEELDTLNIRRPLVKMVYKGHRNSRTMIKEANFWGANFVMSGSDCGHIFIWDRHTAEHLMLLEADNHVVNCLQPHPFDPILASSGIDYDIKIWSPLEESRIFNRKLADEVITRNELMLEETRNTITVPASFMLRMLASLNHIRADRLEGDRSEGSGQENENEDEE
UniProt Q58WW2: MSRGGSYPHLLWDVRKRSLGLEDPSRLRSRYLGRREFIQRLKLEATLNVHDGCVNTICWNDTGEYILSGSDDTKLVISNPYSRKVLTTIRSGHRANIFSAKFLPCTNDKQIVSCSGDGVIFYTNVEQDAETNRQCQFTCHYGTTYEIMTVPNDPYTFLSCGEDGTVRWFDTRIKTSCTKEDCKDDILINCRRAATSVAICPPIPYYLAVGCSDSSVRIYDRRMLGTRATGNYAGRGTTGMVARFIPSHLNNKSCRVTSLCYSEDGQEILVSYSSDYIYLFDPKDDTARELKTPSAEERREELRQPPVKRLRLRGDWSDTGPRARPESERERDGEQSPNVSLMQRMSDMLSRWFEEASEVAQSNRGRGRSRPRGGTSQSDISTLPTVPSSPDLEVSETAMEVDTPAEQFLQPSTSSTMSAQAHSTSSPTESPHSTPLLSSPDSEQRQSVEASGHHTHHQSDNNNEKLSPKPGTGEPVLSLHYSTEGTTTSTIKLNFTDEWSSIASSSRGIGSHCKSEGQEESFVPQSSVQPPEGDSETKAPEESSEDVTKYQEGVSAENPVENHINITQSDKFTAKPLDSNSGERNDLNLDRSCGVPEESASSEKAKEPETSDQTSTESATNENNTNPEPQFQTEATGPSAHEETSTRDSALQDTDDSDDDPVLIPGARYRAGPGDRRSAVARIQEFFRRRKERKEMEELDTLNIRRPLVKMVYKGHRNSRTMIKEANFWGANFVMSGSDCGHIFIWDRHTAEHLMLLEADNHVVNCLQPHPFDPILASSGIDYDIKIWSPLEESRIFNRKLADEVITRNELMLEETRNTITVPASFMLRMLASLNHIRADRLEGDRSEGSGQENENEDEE
UniProt P04756, residues 21-457: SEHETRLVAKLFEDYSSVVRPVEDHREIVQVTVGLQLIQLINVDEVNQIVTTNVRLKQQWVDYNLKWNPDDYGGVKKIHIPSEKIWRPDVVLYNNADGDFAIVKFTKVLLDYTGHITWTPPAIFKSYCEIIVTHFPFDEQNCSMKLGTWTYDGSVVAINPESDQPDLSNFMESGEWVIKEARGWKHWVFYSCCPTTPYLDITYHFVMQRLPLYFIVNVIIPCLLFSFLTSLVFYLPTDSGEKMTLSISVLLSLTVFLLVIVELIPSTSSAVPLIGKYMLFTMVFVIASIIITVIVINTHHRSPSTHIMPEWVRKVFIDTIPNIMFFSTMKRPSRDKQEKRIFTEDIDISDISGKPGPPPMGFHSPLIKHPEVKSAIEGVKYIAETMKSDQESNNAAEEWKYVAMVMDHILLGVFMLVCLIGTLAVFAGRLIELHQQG

The record followed here is publication PMC8200423.

Experiment [1] deals with Flag‐AChRα (UniProt P02708). The experiment in a line: co-IP; HEK293T cells co-transfected with EGFP-NRIP and Flag-AChRα; immunoprecipitation with anti-EGFP or anti-Flag, Western blot. A general note: Immunoblotting shows a protein as a band on a membrane.
The target of experiment [2] is nuclear receptor interaction protein (NRIP), endogenous (mouse (endogenous in gastrocnemius muscle and C2C12)) (UniProt Q9DC22). Description: co-IP; endogenous proteins in lysates of C2C12 cells differentiated for 5 days; immunoprecipitation with anti-NRIP, anti-AChRα or normal rabbit IgG, Western blot.
In experiment [3] the target is EGFP‐NRIP (UniProt Q58WW2). The experiment in a line: co-IP; HEK293T cells co-transfected with EGFP-NRIP and Flag-AChRα; immunoprecipitation with anti-EGFP or anti-Flag, Western blot.
For experiment [4], the target named is α subunit of AChR (AChRα), endogenous (mouse (endogenous in C2C12)) (UniProt P04756). Description: co-IP; endogenous proteins in lysates of C2C12 cells differentiated for 5 days; immunoprecipitation with anti-NRIP, anti-AChRα or normal rabbit IgG, Western blot.

In the case of EGFP‐NRIP (from UniProt Q58WW2 1-860), the binding entry in experiment [1] is on record as “binds”.

In the case of “α subunit of AChR (AChRα), endogenous (from UniProt P04756 21-457)”, the binding result in experiment [2] is given as “binds”.

Take Flag‐AChRα (from UniProt P02708 21-457): the binding result in experiment [3] is on record as “binds”.

As to “nuclear receptor interaction protein (NRIP), endogenous (from UniProt Q9DC22 1-876)”, in experiment [4], the binding entry was “binds”.
